Measured values published in article PMC9596381.
Results are given in words; binding and its absence hold for the method and conditions named.

Protein sequences, listed by entry. Tags and fused reporters are not part of them. Lines headed by an entry give the natural chain unless they say otherwise; changes in a name come on top. Residues count along the entry.
UniProt Q8K1S4: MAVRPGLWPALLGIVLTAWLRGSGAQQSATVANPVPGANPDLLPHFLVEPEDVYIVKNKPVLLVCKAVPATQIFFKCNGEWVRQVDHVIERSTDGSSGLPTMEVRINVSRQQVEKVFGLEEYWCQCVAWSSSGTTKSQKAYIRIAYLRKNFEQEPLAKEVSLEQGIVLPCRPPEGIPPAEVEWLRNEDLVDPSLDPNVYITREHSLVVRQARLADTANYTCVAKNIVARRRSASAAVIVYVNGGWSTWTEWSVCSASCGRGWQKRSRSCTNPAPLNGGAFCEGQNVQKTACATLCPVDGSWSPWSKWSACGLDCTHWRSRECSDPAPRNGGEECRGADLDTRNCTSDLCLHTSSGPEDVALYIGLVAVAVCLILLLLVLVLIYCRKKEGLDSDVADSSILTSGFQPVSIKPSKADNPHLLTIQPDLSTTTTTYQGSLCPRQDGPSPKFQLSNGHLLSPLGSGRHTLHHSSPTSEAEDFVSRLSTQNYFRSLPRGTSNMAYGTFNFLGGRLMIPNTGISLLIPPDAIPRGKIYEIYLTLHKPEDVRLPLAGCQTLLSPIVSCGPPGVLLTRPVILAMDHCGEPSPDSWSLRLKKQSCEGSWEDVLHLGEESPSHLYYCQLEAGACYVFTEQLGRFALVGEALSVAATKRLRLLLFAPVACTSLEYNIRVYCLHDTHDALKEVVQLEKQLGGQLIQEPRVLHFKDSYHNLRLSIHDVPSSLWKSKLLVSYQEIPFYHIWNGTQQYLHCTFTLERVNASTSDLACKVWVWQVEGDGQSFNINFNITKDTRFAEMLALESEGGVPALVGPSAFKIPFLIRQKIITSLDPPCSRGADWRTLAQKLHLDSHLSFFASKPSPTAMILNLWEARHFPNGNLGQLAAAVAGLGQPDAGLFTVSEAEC
UniProt O08747: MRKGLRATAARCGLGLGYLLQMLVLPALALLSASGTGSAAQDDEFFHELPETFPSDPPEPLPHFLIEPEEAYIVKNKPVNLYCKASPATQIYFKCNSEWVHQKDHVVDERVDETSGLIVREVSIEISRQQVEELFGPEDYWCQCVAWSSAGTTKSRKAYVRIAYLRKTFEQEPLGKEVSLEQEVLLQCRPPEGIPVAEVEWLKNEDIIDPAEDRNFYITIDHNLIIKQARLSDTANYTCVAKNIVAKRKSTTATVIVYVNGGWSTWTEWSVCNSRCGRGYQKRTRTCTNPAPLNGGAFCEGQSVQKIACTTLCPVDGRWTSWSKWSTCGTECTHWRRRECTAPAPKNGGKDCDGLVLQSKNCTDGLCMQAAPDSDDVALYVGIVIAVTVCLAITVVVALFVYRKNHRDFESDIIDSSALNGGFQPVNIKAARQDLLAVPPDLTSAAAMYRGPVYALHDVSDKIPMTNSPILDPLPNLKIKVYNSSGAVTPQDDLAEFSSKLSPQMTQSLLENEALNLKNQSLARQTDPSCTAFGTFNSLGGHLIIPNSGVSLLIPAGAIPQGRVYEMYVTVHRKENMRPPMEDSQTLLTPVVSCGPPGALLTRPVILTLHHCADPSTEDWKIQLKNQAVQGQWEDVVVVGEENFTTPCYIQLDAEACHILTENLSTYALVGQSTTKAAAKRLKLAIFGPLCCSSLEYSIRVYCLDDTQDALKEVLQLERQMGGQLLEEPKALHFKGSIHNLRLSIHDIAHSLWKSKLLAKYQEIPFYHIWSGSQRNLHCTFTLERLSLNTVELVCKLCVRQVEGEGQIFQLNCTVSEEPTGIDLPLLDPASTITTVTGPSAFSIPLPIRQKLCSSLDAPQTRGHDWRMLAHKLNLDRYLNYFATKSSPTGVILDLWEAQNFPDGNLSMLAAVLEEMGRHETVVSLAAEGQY
UniProt Q8K1S3: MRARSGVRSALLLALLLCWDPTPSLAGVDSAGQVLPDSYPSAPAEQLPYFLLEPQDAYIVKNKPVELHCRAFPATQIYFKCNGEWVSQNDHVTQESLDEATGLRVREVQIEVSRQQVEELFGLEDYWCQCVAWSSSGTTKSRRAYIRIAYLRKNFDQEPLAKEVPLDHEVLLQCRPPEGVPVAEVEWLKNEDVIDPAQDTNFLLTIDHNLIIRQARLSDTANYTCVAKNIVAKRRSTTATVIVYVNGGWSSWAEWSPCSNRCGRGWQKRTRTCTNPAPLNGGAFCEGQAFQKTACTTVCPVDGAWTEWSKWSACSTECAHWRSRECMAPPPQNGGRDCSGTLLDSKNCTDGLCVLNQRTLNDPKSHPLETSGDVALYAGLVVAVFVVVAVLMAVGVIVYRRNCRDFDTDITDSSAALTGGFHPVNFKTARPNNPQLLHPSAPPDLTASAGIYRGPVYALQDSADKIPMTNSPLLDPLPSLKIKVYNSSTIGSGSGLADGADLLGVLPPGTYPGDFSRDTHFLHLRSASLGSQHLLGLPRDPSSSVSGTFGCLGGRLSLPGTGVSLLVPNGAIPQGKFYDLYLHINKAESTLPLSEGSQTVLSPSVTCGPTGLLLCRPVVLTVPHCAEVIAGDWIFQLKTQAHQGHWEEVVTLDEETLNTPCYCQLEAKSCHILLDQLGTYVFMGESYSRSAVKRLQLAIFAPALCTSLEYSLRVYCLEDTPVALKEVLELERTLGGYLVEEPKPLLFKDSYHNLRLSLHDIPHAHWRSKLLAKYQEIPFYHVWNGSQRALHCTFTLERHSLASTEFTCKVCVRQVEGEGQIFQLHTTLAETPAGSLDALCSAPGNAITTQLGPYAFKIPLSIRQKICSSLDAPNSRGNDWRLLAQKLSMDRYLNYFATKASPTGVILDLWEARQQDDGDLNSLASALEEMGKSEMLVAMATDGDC
UniProt P51654, residues 32-483: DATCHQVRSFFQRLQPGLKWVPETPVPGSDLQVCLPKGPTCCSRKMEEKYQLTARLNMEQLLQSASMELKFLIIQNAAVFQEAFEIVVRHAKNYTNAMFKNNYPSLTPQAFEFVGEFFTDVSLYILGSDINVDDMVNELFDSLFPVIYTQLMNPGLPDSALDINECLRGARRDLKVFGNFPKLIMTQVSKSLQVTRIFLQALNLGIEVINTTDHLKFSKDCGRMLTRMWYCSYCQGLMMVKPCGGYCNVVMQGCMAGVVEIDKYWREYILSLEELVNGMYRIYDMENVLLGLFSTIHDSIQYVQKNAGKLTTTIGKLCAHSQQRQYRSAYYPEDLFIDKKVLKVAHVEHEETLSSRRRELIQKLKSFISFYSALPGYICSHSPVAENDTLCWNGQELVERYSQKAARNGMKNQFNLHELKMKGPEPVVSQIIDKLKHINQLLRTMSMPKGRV

Experiments:
[1] = target: Unc5A^GU ectodomain mutant (mUnc5A^ectoGU) (mouse) (UniProt Q8K1S4); assay: SPR; equilibrium binding at 25 C, Biacore T200; one partner biotinylated at a C-terminal Avi-tag on a streptavidin-coated CM5 chip; analyte in 2-fold dilution series; PBS or 20 mM Tris, 200 mM NaCl, 0.005% polysorbate 20, pH 7.5; apparent KD from a 1:1 model, indicative only; both purified
[2] = target: Unc5C^GU ectodomain mutant (UniProt O08747); assay: as above
[3] = target: Unc5B^GU ectodomain mutant (mUnc5B^ectoGU) (mouse) (UniProt Q8K1S3); assay: as above
[4] = target: Unc5^GU mutant expressed on cells (cell-based binding assay of Figure 3B) (UniProt Q8K1S3); assay: cell-based binding assay (fluorescence microscopy); HEK293T cells expressing mVenus-tagged receptor; 0.5 ug purified His-tagged protein pre-clustered with anti-His, 60 min on ice; anti-mouse-Cy3; co-localisation area quantified; only the binder purified

Measured: binding

human glypican-3 core domain, residues 32-483 (hGPC3^core) (from UniProt P51654 32-483) (domain or fragment)
no binding: all assays above
